In the supplement of paper PMC10849652:
This is one part of the list.

Chains of the proteins cited; added tags and fusions are not shown. Lines headed by an entry give the natural chain unless they say otherwise; changes in a name come on top.
UniProt O43318: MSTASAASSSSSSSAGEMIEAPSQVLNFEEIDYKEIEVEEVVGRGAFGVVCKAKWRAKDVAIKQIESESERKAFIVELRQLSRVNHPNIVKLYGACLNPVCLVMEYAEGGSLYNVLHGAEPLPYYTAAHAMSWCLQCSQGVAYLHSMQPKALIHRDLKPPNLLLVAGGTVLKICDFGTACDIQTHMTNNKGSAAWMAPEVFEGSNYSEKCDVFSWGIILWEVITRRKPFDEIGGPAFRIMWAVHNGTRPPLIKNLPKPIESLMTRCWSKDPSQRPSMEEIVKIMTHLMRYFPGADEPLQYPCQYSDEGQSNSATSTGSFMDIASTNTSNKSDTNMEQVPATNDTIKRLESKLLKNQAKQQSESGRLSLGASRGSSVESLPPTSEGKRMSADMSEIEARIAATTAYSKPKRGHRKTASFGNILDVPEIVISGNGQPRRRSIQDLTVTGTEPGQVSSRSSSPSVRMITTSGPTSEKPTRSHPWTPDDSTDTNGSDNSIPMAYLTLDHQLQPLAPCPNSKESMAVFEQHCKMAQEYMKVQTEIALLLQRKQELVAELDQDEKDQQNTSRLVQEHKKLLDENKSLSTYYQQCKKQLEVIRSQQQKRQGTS
UniProt Q96GX5: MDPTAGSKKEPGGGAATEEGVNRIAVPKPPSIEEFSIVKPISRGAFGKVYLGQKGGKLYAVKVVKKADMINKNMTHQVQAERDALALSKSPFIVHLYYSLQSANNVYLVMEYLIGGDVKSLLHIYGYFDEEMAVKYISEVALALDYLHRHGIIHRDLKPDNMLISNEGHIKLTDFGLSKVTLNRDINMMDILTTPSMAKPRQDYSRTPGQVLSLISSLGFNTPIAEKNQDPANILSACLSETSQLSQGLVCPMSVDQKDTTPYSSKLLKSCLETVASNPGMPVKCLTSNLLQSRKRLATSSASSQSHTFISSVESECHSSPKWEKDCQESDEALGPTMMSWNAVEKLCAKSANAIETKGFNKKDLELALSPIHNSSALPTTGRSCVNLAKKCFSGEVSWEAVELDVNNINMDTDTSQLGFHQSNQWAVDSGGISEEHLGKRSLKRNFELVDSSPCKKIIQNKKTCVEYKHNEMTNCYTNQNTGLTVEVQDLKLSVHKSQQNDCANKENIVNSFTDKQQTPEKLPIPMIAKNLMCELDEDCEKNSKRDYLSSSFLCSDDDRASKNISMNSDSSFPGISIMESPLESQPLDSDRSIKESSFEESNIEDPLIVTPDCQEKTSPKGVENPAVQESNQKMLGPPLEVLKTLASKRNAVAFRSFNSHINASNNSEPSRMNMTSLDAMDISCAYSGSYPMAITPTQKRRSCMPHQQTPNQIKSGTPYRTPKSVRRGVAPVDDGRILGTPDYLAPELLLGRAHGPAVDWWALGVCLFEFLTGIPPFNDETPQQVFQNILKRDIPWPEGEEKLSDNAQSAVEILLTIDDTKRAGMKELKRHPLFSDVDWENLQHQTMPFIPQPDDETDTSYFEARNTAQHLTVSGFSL
UniProt Q9HD34: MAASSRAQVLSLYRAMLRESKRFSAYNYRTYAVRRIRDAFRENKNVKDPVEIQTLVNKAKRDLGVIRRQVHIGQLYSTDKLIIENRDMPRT
UniProt Q8WXG6, whole entry, looked up: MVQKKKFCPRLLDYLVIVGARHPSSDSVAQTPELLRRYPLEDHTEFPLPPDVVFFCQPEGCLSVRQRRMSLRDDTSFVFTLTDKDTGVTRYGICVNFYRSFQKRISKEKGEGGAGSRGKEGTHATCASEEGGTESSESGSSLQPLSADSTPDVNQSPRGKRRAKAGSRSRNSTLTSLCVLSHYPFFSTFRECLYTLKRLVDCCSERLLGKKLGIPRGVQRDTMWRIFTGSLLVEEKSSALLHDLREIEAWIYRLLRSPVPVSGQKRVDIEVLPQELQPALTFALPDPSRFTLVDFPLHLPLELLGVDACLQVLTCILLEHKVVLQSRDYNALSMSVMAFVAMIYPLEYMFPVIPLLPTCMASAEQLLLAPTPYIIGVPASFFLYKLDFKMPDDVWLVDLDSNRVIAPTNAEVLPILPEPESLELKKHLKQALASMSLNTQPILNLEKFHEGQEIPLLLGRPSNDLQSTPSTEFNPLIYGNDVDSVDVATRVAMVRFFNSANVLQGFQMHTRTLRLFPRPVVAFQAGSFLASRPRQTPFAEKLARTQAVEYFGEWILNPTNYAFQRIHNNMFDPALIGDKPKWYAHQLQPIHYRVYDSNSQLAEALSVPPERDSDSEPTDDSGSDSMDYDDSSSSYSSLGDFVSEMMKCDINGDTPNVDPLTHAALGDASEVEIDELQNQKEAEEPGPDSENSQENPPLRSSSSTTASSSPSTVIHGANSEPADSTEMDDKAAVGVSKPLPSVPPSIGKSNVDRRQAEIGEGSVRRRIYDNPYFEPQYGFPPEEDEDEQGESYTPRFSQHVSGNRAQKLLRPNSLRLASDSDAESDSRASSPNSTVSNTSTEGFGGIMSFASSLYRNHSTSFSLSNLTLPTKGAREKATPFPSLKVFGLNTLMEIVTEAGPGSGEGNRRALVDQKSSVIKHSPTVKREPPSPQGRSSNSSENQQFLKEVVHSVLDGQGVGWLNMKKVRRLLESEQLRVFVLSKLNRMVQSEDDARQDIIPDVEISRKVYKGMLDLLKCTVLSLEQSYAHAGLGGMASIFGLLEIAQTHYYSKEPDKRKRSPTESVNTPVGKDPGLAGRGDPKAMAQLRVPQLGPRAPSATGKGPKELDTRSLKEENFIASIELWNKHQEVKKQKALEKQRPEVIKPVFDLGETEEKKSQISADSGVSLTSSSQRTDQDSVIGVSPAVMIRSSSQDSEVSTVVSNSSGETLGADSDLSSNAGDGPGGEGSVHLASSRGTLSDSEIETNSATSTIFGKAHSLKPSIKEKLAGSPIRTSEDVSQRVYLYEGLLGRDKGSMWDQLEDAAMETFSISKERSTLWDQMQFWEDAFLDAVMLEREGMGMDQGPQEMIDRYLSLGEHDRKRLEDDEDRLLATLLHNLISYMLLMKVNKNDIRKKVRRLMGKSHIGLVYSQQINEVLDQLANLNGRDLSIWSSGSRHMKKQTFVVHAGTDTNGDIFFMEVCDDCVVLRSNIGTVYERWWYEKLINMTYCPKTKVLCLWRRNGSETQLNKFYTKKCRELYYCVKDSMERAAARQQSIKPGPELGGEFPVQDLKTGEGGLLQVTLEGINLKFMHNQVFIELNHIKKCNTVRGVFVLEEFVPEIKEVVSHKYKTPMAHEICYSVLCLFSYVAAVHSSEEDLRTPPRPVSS
UniProt Q9UNF1: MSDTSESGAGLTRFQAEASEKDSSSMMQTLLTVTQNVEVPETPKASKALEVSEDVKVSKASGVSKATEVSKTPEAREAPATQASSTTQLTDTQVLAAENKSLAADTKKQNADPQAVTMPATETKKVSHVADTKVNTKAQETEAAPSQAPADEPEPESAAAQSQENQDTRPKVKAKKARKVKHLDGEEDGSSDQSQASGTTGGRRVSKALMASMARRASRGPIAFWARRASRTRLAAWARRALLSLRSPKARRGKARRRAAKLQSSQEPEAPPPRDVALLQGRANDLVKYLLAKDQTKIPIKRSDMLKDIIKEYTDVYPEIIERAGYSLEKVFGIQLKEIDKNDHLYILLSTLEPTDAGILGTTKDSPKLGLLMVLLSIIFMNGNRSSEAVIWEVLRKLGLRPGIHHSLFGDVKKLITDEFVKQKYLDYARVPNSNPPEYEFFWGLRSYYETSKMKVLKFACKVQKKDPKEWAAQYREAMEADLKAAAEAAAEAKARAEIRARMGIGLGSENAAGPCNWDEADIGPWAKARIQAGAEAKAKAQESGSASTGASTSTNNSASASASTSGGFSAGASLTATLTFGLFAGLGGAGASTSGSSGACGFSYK
UniProt P31153, whole entry, looked up: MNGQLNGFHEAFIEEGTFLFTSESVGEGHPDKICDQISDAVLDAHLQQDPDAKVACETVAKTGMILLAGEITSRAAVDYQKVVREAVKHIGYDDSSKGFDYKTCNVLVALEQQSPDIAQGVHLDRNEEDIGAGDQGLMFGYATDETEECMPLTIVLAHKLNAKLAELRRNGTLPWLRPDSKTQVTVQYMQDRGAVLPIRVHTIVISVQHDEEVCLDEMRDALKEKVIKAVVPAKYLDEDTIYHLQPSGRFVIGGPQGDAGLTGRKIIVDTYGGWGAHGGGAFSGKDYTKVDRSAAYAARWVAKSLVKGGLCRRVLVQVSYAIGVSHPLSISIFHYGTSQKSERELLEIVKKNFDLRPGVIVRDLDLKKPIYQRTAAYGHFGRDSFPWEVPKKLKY
UniProt Q9H063: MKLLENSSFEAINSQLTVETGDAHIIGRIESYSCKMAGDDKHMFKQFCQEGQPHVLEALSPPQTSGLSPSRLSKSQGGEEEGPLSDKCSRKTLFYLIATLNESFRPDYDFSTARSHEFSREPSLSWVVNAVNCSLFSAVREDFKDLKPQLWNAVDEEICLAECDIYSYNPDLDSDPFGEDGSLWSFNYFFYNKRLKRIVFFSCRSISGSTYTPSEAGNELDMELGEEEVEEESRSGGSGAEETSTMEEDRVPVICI
UniProt P49137, whole entry, looked up: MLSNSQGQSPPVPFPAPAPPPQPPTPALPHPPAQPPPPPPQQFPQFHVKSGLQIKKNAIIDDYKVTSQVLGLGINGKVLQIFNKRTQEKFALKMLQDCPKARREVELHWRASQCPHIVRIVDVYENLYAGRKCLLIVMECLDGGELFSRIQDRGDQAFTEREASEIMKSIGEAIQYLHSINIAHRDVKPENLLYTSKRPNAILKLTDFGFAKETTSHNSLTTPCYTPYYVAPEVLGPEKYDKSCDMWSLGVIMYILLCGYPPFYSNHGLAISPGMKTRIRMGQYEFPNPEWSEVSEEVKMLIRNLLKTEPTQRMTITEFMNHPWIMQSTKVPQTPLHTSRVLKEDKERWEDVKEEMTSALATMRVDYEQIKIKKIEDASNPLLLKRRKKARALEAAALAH
UniProt P55145: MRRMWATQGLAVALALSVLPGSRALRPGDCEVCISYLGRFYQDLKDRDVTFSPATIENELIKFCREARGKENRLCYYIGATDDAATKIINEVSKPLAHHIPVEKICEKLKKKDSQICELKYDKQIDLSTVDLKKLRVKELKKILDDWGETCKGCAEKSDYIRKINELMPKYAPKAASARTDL
UniProt P02788: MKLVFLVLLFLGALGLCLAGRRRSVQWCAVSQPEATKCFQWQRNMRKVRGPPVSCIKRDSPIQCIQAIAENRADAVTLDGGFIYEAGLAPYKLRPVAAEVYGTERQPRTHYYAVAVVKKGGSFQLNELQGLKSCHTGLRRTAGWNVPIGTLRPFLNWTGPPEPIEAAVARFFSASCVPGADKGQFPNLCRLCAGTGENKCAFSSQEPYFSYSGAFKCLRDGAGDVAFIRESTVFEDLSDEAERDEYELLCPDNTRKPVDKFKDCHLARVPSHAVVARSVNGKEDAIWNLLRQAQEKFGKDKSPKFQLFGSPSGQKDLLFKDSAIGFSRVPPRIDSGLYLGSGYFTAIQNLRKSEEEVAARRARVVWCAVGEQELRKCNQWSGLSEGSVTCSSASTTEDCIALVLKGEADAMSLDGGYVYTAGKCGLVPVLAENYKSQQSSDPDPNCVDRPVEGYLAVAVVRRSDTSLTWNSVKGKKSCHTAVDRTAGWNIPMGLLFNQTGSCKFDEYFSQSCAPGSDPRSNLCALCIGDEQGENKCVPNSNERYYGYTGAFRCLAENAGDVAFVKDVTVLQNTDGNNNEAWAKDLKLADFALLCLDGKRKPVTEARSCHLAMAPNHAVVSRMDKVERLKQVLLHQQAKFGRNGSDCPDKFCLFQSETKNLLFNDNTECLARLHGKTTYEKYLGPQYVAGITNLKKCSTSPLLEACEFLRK
UniProt Q9P0L2: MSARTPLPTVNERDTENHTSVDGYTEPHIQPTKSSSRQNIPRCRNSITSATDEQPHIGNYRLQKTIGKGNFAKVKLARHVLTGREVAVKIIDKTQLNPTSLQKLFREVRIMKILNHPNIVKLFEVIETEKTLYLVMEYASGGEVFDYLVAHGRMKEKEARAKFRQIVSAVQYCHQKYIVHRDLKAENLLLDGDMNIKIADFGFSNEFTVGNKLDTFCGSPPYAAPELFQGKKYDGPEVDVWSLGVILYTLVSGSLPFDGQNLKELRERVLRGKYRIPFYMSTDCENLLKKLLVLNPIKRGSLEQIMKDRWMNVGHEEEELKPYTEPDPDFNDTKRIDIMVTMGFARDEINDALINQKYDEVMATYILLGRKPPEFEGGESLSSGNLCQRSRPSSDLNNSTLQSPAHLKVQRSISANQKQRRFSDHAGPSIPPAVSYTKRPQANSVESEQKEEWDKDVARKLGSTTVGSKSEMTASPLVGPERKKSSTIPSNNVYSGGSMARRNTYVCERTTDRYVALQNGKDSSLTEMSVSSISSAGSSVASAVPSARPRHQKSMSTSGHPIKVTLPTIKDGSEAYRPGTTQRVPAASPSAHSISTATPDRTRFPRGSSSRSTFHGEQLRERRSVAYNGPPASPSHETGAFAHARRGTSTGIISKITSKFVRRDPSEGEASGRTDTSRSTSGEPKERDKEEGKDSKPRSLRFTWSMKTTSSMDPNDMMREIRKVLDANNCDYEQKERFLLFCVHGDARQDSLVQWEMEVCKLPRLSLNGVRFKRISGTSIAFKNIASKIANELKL

Columns and labels:
Assay in all cases: log2 fold change, soluble protein after heating vs DMSO (PISA); higher = thermal stabilisation; K562 lysate, 10 uM; active = over 0.2 and 3.5 SD of the protein, either way, in both replicates (recomputed)
lapatinib = compound: CS(=O)(=O)CCNCc1ccc(-c2ccc3ncnc(Nc4ccc(OCc5cccc(F)c5)c(Cl)c4)c3c2)o1 [lapatinib]
In short: (§1)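 Soluble protein was defined as the supernatant remaining after 21,000xg for 90 min, following pooling of heated aliquots and adjustment to 0.5% NP-40 at 4°C. Before that, crude K562 extract at 1 mg/mL protein in PBS pH 7.4 with 1 mM MgCl2 was treated with 10 μM compound for 30 min and heated for 3 min across 48°C-58°C. Quantification used TMTpro 16plex LC-MS/MS with channel sums equalised, and values are log-two fold changes in thermal stability relative to solvent controls from duplicates.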

pictilisib = compound: CS(=O)(=O)N1CCN(Cc2cc3nc(-c4cccc5[nH]ncc45)nc(N4CCOCC4)c3s2)CC1 [pictilisib]
In short: as §1

crizotinib = compound: C[C@@H](Oc1cc(-c2cnn(C3CCNCC3)c2)cnc1N)c1c(Cl)ccc(F)c1Cl [crizotinib]
In short: as §1

[1] = compound: C[C@H](C1=CC=C(C=C1)C(=O)NC2=C3C=CNC3=NC=C2)N
In short: as §1

duvelisib = compound: C[C@H](Nc1ncnc2nc[nH]c12)c1cc2cccc(Cl)c2c(=O)n1-c1ccccc1 [duvelisib]
In short: as §1

gandotinib = compound: Cc1cc(Nc2cc(CN3CCOCC3)c3nc(C)c(Cc4ccc(Cl)cc4F)n3n2)n[nH]1 [gandotinib]
In short: as §1

tozasertib = compound: Cc1cc(Nc2cc(N3CCN(C)CC3)nc(Sc3ccc(NC(=O)C4CC4)cc3)n2)n[nH]1 [tozasertib]
In short: as §1

doramapimod = compound: Cc1ccc(-n2nc(C(C)(C)C)cc2NC(=O)Nc2ccc(OCCN3CCOCC3)c3ccccc23)cc1 [doramapimod]
In short: as §1

bafetinib = compound: Cc1ccc(NC(=O)c2ccc(CN3CC[C@H](N(C)C)C3)c(C(F)(F)F)c2)cc1Nc1nccc(-c2cncnc2)n1 [bafetinib]
In short: as §1

[2] = compound: Cc1cccc(CC(=O)N2CCc3c2ccc(-c2cn(C)c4ncnc(N)c24)c3F)n1
In short: as §1

nilotinib = compound: Cc1cn(-c2cc(NC(=O)c3ccc(C)c(Nc4nccc(-c5cccnc5)n4)c3)cc(C(F)(F)F)c2)cn1 [nilotinib]
In short: as §1

[3] = compound: Cc1nc(Nc2n[nH]c3c2CN(C(=O)N[C@H](CN(C)C)c2ccccc2)C3(C)C)c2sccc2n1
In short: as §1

dasatinib = compound: Cc1nc(Nc2ncc(C(=O)Nc3c(C)cccc3Cl)s2)cc(N2CCN(CCO)CC2)n1 [dasatinib]
In short: as §1

[4] = compound: Cc1ncc(-c2ccnc(Nc3ccc(S(C)(=O)=O)cc3)n2)n1C(C)C
In short: as §1

[5] = compound: Cn1cc(-c2ccc3c(c2)CCN3C(=O)Cc2cccc(C(F)(F)F)c2)c2c(N)ncnc21
In short: as §1

quisinostat = compound: Cn1cc(CNCC2CCN(c3ncc(C(=O)NO)cn3)CC2)c2ccccc21 [quisinostat]
In short: as §1

tipifarnib = compound: Cn1cncc1[C@@](N)(c1ccc(Cl)cc1)c1ccc2c(c1)c(-c1cccc(Cl)c1)cc(=O)n2C [tipifarnib]
In short: as §1

[6] = compound: NC(=O)Nc1cc(-c2cccc(F)c2)sc1C(=O)N[C@H]1CCCNC1
In short: as §1

[7] = compound: NC(=O)c1cnc(N[C@@H]2CCCC[C@@H]2N)nc1Nc1cccc(-n2nccn2)c1
In short: as §1

[8] = compound: NC1(c2ccc(-c3nc4ccn5c(=O)[nH]nc5c4cc3-c3ccccc3)cc2)CCC1
In short: as §1

Row | Target | log2 fold change (lapatinib) | log2 fold change (pictilisib) | log2 fold change (crizotinib) | log2 fold change [1] | log2 fold change (duvelisib) | log2 fold change (gandotinib) | log2 fold change (tozasertib) | log2 fold change (doramapimod) | log2 fold change (bafetinib) | log2 fold change [2] | log2 fold change (nilotinib) | log2 fold change [3] | log2 fold change (dasatinib) | log2 fold change [4] | log2 fold change [5] | log2 fold change (quisinostat) | log2 fold change (tipifarnib) | log2 fold change [6] | log2 fold change [7] | log2 fold change [8]
1 | MAP3K7 (UniProt O43318) | inactive: -0.006 | inactive: -0.016 | inactive: -0.007 | inactive: 0.001 | inactive: -0.003 | inactive: 0.013 | inactive: -0.028 | inactive: 0.146 | inactive: 0.025 | inactive: -0.043 | inactive: -0.012 | inactive: 0.033 | inactive: -0.011 | inactive: 0.092 | inactive: -0.02 | inactive: -0.119 | inactive: -0.007 | inactive: 0.057 | inactive: -0.022 | inactive: -0.033
2 | MARS2 (UniProt Q96GW9) | inactive: -0.043 | inactive: -0.028 | inactive: 0.035 | inactive: 0.027 | inactive: 0.004 | inactive: 0.027 | inactive: 0.018 | inactive: -0.008 | inactive: -0.043 | inactive: -0.04 | inactive: 0.019 | inactive: -0.018 | inactive: -0.005 | inactive: -0.017 | inactive: 0.019 | inactive: 0 | inactive: 0.032 | inactive: -0.002 | inactive: -0.012 | inactive: -0.05
3 | MASTL (UniProt Q96GX5) | inactive: -0.041 | inactive: -0.015 | inactive: 0.077 | inactive: -0.14 | inactive: 0.01 | inactive: 0.078 | inactive: 0.03 | inactive: 0.02 | inactive: -0.057 | inactive: 0.055 | inactive: -0.029 | inactive: 0.036 | inactive: -0.012 | inactive: 0.027 | inactive: 0.046 | inactive: -0.047 | inactive: -0.071 | inactive: 0.061 | inactive: -0.055 | inactive: 0.032
4 | MAP2K2 (UniProt P36507) | inactive: -0.048 | inactive: 0.015 | inactive: 0.039 | inactive: 0.207 | inactive: 0.012 | inactive: -0.065 | inactive: 0.282 | inactive: -0.058 | inactive: -0.063 | inactive: -0.015 | inactive: -0.03 | inactive: 0.205 | active: 0.445 | inactive: 0.065 | inactive: -0.031 | inactive: 0 | inactive: -0.006 | active: 0.495 | inactive: 0.033 | inactive: -0.002
5 | LYRM4 (UniProt Q9HD34) | inactive: -0.036 | inactive: -0.026 | inactive: -0.034 | active: 0.413 | inactive: 0.031 | inactive: -0.095 | inactive: -0.021 | inactive: -0.047 | inactive: 0.008 | inactive: -0.007 | inactive: 0.009 | inactive: -0.031 | inactive: -0.061 | inactive: 0.052 | inactive: -0.028 | inactive: -0.093 | inactive: -0.028 | inactive: 0.054 | inactive: -0.036 | inactive: -0.005
6 | MACO1 (UniProt Q8N5G2) | inactive: 0.016 | inactive: 0.041 | inactive: 0.003 | inactive: -0.019 | inactive: 0.015 | inactive: -0.008 | inactive: 0.138 | inactive: -0.035 | inactive: -0.001 | inactive: -0.001 | inactive: -0.003 | inactive: 0.017 | inactive: -0.092 | inactive: 0.066 | inactive: 0.004 | inactive: 0.042 | inactive: 0.042 | inactive: 0.033 | inactive: -0.02 | inactive: 0.054
7 | MAP2K1 (UniProt Q02750) | inactive: -0.065 | inactive: -0.009 | inactive: 0.001 | inactive: 0.204 | inactive: -0.021 | inactive: -0.042 | inactive: 0.152 | inactive: -0.002 | inactive: -0.027 | inactive: -0.047 | inactive: -0.02 | inactive: 0.107 | active: 0.296 | inactive: 0.057 | inactive: -0.057 | inactive: -0.064 | inactive: -0.037 | active: 0.4 | inactive: 0.033 | inactive: -0.02
8 | MADD isoform 4 (UniProt Q8WXG6) | inactive: 0.027 | inactive: -0.037 | inactive: -0.037 | inactive: -0.015 | inactive: -0.034 | inactive: -0.017 | inactive: -0.004 | inactive: 0.021 | inactive: -0.041 | inactive: 0.026 | inactive: -0.002 | inactive: 0.011 | inactive: -0.007 | inactive: 0.002 | inactive: 0.01 | inactive: -0.047 | inactive: -0.048 | inactive: 0 | inactive: 0.007 | inactive: 0.017
9 | MAGED2 (UniProt Q9UNF1) | inactive: -0.017 | inactive: 0.013 | inactive: -0.039 | inactive: 0.016 | inactive: -0.014 | inactive: -0.108 | inactive: -0.012 | inactive: 0.017 | inactive: -0.156 | inactive: 0 | inactive: 0.047 | inactive: -0.026 | inactive: -0.024 | inactive: -0.085 | inactive: 0.05 | inactive: -0.031 | inactive: -0.031 | inactive: 0.01 | inactive: -0.022 | inactive: -0.074
10 | MAT2A (UniProt P31153) | inactive: -0.021 | inactive: 0.008 | inactive: -0.017 | inactive: 0.001 | inactive: 0.024 | inactive: -0.032 | inactive: 0.025 | inactive: 0.049 | inactive: 0.05 | inactive: 0.008 | inactive: -0.022 | inactive: 0.005 | inactive: 0.021 | inactive: -0.007 | inactive: 0.015 | inactive: -0.011 | inactive: 0.01 | inactive: -0.002 | inactive: 0 | inactive: 0.023
11 | MAF1 (UniProt Q9H063) | inactive: 0.022 | inactive: -0.014 | inactive: -0.051 | inactive: 0.149 | inactive: -0.046 | inactive: 0.106 | inactive: 0.029 | inactive: 0.014 | inactive: 0.005 | inactive: -0.153 | inactive: 0.008 | inactive: 0.019 | inactive: -0.085 | inactive: -0.016 | inactive: 0.044 | inactive: -0.027 | inactive: 0.002 | inactive: 0.125 | inactive: 0.016 | inactive: 0.043
12 | MAPKAPK2 (UniProt P49137) | inactive: -0.04 | inactive: -0.05 | inactive: -0.014 | inactive: 0.046 | inactive: 0.033 | inactive: -0.03 | inactive: 0.004 | inactive: 0.092 | inactive: -0.037 | inactive: 0.018 | inactive: 0.032 | inactive: 0.068 | inactive: -0.043 | inactive: -0.008 | inactive: 0 | inactive: 0.01 | inactive: 0.032 | inactive: 0.148 | inactive: 0.022 | inactive: 0.008
13 | MANF (UniProt P55145) | inactive: 0.014 | inactive: -0.025 | inactive: 0.037 | inactive: -0.045 | inactive: 0.053 | inactive: 0.068 | inactive: -0.03 | inactive: -0.047 | inactive: 0.094 | inactive: -0.026 | inactive: -0.002 | inactive: -0.013 | inactive: 0.011 | inactive: -0.015 | inactive: -0.005 | inactive: -0.012 | inactive: -0.05 | inactive: -0.014 | inactive: 0.002 | inactive: 0.024
14 | MAPK8IP3 (UniProt Q9UPT6) | inactive: -0.009 | inactive: -0.023 | inactive: -0.022 | inactive: 0.023 | inactive: 0.016 | inactive: -0.026 | inactive: 0.068 | inactive: 0.02 | inactive: 0.034 | inactive: -0.054 | inactive: -0.003 | inactive: 0.025 | inactive: 0.035 | inactive: -0.02 | inactive: -0.011 | inactive: 0.04 | inactive: 0.043 | inactive: -0.027 | inactive: 0 | inactive: 0.008
15 | LTF (UniProt P02788) | inactive: 0.112 | inactive: 0.173 | inactive: 0.56 | inactive: 0.143 | inactive: 0.259 | inactive: -0.151 | inactive: 0.288 | inactive: -0.248 | inactive: 0.073 | inactive: 0.5 | inactive: -0.045 | inactive: 0.001 | inactive: -0.012 | inactive: -0.121 | inactive: 0.278 | inactive: 0.166 | inactive: -0.126 | inactive: -0.015 | inactive: -0.054 | inactive: 0.048
16 | MARK1 (UniProt Q9P0L2) | inactive: 0.037 | inactive: -0.065 | inactive: -0.175 | inactive: 0.026 | inactive: -0.002 | inactive: -0.192 | inactive: -0.084 | inactive: 0.155 | inactive: -0.034 | inactive: 0.05 | inactive: 0.035 | inactive: -0.113 | inactive: -0.123 | inactive: -0.019 | inactive: 0.003 | inactive: 0.092 | inactive: 0.023 | inactive: -0.083 | inactive: -0.03 | inactive: -0.072

Reformatted: entries from further up.
Row	Target	log2 fold change (lapatinib)	log2 fold change (pictilisib)	log2 fold change (crizotinib)	log2 fold change [1]	log2 fold change (duvelisib)	log2 fold change (gandotinib)	log2 fold change (tozasertib)	log2 fold change (doramapimod)	log2 fold change (bafetinib)	log2 fold change [2]	log2 fold change (nilotinib)	log2 fold change [3]	log2 fold change (dasatinib)	log2 fold change [4]	log2 fold change [5]	log2 fold change (quisinostat)	log2 fold change (tipifarnib)	log2 fold change [6]	log2 fold change [7]	log2 fold change [8]
2	MARS2 (UniProt Q96GW9)	inactive: -0.043	inactive: -0.028	inactive: 0.035	inactive: 0.027	inactive: 0.004	inactive: 0.027	inactive: 0.018	inactive: -0.008	inactive: -0.043	inactive: -0.04	inactive: 0.019	inactive: -0.018	inactive: -0.005	inactive: -0.017	inactive: 0.019	inactive: 0	inactive: 0.032	inactive: -0.002	inactive: -0.012	inactive: -0.05
7	MAP2K1 (UniProt Q02750)	inactive: -0.065	inactive: -0.009	inactive: 0.001	inactive: 0.204	inactive: -0.021	inactive: -0.042	inactive: 0.152	inactive: -0.002	inactive: -0.027	inactive: -0.047	inactive: -0.02	inactive: 0.107	active: 0.296	inactive: 0.057	inactive: -0.057	inactive: -0.064	inactive: -0.037	active: 0.4	inactive: 0.033	inactive: -0.02
